The supplement of paper PMC12819154, “High-throughput peptide-centric local stability assay extends protein–ligand identification to membrane proteins, tissues and bacteria” (Nature Structural & Molecular Biology, 2025)
The other results are listed elsewhere or left out. Most values lie at the level of the controls, where differences are scatter.

By UniProt entry, the sequences of proteins in these tests, tags left out. Where a name states a change or a piece, a line headed by the entry shows the natural chain unless it says otherwise.
UniProt Q99J08: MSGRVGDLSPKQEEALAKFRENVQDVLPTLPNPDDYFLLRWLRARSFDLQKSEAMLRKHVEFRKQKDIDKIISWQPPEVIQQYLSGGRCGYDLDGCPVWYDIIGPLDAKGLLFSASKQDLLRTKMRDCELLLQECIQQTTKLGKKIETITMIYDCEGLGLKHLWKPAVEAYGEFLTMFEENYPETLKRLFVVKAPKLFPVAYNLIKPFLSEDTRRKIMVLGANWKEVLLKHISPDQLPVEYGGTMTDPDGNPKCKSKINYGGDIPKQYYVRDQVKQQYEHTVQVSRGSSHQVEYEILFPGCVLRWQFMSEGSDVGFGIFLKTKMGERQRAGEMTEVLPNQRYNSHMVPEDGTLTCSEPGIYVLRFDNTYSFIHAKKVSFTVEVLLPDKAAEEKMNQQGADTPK
UniProt Q8VE09: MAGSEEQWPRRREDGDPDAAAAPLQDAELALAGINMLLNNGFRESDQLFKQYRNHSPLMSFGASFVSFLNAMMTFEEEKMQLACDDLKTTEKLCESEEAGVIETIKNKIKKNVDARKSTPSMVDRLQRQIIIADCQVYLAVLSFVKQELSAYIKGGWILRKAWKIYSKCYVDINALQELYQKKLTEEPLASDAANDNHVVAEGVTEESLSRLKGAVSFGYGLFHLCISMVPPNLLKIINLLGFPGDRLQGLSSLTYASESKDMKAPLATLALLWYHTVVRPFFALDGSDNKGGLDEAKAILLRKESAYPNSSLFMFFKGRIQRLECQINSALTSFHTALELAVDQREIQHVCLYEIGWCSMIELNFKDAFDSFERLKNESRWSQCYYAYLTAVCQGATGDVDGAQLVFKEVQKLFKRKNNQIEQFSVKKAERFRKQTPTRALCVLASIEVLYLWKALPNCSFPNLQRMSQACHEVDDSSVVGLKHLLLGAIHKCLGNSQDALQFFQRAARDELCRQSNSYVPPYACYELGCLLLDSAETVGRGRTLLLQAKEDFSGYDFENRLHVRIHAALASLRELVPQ
UniProt Q8VED9: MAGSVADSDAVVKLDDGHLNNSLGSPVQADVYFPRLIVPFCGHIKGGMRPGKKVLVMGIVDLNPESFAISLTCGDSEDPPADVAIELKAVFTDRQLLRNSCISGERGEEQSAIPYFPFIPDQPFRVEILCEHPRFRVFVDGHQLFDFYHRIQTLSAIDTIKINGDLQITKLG
UniProt Q91W53, whole entry: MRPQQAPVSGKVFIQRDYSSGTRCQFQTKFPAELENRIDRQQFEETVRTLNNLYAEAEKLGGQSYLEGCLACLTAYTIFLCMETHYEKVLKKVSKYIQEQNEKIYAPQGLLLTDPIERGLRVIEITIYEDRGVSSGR
UniProt Q8VDQ8: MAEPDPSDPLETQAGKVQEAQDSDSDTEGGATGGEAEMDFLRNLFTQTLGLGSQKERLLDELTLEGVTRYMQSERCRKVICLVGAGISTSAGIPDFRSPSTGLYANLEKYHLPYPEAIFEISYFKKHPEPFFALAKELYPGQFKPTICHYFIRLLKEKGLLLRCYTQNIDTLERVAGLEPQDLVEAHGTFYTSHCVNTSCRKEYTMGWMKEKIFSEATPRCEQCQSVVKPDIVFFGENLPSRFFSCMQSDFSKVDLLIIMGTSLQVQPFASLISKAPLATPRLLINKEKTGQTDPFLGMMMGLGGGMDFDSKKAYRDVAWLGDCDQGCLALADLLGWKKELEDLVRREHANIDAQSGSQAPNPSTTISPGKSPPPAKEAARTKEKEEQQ
UniProt Q91VC7: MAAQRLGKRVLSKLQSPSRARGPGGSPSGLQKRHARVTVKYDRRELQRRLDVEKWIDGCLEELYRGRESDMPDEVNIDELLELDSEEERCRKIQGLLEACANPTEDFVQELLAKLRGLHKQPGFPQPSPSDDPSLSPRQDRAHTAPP
UniProt Q922B9: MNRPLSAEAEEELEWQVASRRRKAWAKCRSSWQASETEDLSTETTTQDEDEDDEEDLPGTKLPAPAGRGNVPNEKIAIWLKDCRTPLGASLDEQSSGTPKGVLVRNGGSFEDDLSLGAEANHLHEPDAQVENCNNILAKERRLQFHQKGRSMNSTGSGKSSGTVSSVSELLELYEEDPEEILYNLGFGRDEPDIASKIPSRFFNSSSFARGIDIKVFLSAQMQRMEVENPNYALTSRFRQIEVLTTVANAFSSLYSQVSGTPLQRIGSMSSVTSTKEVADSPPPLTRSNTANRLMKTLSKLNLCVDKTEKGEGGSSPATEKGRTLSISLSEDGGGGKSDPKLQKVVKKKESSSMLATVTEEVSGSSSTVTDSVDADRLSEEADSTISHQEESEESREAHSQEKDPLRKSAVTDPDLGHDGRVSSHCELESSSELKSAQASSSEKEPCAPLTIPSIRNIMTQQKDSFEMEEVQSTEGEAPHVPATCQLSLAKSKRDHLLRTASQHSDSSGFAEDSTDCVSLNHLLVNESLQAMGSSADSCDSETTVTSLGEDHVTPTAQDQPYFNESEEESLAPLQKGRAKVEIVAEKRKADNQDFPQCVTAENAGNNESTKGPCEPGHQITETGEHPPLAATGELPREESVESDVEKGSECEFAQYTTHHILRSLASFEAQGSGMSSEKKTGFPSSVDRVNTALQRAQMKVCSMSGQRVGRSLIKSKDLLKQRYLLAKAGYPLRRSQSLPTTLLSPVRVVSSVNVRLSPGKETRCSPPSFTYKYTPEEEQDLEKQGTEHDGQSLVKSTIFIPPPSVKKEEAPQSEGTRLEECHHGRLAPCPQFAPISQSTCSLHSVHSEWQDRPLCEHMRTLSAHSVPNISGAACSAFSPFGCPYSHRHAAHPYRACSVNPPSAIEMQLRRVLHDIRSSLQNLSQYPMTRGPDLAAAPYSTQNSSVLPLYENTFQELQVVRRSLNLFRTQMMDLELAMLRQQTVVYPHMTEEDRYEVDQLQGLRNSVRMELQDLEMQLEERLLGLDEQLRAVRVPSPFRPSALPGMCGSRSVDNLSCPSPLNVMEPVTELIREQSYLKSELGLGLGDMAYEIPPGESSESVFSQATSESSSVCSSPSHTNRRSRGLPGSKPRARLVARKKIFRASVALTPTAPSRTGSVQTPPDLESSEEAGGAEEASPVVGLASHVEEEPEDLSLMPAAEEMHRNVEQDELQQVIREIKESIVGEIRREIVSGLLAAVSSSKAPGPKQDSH
UniProt Q924H7: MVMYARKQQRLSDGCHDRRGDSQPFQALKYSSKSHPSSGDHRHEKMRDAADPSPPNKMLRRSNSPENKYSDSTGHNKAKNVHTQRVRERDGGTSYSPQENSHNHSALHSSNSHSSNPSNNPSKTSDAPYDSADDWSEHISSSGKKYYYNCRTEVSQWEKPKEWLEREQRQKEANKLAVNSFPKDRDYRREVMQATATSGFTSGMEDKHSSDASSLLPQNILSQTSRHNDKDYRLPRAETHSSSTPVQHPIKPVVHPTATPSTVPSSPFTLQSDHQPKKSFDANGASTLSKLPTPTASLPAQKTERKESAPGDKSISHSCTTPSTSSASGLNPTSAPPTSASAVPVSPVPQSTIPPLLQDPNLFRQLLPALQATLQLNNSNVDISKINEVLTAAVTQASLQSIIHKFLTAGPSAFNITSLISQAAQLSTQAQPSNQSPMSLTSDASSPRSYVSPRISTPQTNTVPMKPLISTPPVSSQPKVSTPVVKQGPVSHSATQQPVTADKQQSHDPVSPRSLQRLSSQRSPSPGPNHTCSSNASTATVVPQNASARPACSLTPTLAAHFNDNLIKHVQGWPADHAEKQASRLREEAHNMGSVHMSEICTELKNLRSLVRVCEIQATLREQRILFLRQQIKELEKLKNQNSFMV
UniProt Q924L1: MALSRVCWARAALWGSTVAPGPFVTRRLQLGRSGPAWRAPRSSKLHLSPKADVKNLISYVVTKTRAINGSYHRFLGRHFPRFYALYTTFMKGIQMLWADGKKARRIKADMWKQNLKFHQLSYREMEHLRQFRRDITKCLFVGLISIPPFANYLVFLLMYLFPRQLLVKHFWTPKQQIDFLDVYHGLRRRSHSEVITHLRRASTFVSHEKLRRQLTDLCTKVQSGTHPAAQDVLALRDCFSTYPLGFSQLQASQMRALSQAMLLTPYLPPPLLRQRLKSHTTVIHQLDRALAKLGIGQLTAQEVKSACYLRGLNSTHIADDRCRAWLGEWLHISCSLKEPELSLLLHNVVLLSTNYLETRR
UniProt Q91WE4: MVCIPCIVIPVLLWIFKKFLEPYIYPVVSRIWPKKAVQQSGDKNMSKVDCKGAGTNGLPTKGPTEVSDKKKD
UniProt Q91VI7: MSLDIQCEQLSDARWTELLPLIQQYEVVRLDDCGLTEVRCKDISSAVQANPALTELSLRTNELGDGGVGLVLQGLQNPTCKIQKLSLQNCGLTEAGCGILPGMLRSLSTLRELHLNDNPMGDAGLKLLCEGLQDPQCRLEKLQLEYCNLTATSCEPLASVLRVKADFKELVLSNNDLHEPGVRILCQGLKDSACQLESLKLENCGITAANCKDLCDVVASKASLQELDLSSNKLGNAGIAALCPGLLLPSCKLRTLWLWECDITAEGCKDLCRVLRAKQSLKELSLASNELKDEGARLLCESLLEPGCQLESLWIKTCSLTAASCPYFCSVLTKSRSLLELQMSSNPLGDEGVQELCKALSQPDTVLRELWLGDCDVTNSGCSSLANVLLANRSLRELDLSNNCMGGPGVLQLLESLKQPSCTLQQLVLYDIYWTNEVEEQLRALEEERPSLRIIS
UniProt Q91YR9: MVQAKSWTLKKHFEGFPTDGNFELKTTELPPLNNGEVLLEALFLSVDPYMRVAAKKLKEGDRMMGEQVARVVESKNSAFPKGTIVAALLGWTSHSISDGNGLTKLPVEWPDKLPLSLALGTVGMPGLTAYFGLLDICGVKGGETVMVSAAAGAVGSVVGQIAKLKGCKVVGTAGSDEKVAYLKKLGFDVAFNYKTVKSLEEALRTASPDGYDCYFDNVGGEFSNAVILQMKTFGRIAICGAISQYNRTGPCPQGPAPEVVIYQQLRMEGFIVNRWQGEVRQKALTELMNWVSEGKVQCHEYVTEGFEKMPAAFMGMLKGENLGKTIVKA
UniProt Q91YD9, whole entry: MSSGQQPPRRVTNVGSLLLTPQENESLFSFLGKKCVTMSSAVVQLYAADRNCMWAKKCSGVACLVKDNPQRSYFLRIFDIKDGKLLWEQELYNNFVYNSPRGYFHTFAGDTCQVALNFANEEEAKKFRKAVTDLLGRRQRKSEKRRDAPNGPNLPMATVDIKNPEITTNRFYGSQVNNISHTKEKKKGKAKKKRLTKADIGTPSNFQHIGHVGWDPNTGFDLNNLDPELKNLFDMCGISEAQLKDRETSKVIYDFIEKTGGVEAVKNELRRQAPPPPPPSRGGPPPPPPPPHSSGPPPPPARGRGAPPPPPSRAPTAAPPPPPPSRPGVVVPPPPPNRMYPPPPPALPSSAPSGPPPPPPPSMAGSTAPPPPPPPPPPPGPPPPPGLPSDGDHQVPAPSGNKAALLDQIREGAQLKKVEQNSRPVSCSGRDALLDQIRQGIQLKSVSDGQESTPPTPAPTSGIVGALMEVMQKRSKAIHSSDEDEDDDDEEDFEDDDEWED
UniProt Q921C5, whole entry: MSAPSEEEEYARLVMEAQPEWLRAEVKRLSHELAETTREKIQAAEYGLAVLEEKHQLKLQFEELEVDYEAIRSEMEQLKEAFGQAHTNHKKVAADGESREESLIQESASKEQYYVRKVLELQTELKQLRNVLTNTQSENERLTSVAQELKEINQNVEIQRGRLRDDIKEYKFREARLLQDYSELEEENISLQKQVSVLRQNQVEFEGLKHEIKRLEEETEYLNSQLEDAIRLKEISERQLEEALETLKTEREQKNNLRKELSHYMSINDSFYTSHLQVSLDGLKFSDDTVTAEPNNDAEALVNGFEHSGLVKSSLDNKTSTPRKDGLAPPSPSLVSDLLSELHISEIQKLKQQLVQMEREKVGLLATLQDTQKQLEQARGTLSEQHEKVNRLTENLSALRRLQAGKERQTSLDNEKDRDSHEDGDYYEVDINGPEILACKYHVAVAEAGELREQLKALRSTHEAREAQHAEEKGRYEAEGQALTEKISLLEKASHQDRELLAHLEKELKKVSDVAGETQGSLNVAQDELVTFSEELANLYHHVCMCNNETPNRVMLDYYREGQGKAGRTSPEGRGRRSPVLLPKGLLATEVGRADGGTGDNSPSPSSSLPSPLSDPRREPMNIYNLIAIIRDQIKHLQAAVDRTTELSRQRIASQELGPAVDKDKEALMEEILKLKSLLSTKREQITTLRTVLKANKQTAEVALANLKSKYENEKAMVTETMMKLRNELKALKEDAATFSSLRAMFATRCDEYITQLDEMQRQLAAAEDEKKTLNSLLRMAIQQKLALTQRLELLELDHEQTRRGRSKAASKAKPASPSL

compound: CN[C@@H]1C[C@H]2O[C@@](C)([C@@H]1OC)n1c3ccccc3c3c4c(c5c6ccccc6n2c5c31)C(=O)NC4 [staurosporine]; assay: log2 fold change of pooled soluble protein (PISA), ligand vs vehicle (log2 ratio); higher = more thermally stabilized; conditions: ligand concentration: 20 uM; assay format: PISA pool 52.9/55.5/58.6 C

Target | log2 fold change of pooled soluble protein
UniProt Q99J08 | 0.0544
UniProt Q8VE09 | 0.278
UniProt Q91Z96 | 0.988
UniProt Q8VDT9 | -0.128
UniProt Q924M7 | 0.0702
UniProt Q8VED9 | 0.0715
UniProt Q91X84 | -0.631
UniProt Q91W53 | 0.135
UniProt Q922B2 | -0.0517
UniProt Q91VS7 | -0.0812
UniProt Q920E5 | -0.0401
UniProt Q91YR1 | 0.0864
UniProt Q8VDQ8 | -0.0831
UniProt Q91VC7 | -0.014
UniProt Q922B9 | -0.171
UniProt Q91VN4 | 0.116
UniProt Q924H7 | -0.074
UniProt Q8VDP2 | -0.117
UniProt Q924L1 | -0.0114

Reformatted with tabs: part of the list above.
Target	log2 fold change of pooled soluble protein
UniProt Q8VDT9	-0.128
UniProt Q924M7	0.0702

Remaining list, next part

Target | log2 fold change of pooled soluble protein
UniProt Q91WE4 | -0.043
UniProt Q91VF2 | 0.174
UniProt Q922V4 | -0.0579
UniProt Q91WM3 | 0.232
UniProt Q91VI7 | 0.024
UniProt Q8VDP6 | -0.367
UniProt Q91YR9 | 0.0147
UniProt Q8VCN6 | 0.0379
UniProt Q8VCQ3 | -0.00951
UniProt Q91W64 | -0.0392
UniProt Q8VEM8 | -0.0669
UniProt Q91YD9 | -0.13
UniProt Q91XT4 | 0.0739
UniProt Q924Y0 | -0.253
UniProt Q8VI47 | 0.0288
UniProt Q921C5 | -0.0319
UniProt Q921X9 | -0.0255
UniProt Q8VDK1 | 0.0105
